The values that follow come from PMC6376327.

Sequences of proteins named here, by UniProt entry; tags and fusion partners are left off. A change or cut given only in a name is not applied to a line headed by its entry. Residues count along the entry.
UniProt P01031: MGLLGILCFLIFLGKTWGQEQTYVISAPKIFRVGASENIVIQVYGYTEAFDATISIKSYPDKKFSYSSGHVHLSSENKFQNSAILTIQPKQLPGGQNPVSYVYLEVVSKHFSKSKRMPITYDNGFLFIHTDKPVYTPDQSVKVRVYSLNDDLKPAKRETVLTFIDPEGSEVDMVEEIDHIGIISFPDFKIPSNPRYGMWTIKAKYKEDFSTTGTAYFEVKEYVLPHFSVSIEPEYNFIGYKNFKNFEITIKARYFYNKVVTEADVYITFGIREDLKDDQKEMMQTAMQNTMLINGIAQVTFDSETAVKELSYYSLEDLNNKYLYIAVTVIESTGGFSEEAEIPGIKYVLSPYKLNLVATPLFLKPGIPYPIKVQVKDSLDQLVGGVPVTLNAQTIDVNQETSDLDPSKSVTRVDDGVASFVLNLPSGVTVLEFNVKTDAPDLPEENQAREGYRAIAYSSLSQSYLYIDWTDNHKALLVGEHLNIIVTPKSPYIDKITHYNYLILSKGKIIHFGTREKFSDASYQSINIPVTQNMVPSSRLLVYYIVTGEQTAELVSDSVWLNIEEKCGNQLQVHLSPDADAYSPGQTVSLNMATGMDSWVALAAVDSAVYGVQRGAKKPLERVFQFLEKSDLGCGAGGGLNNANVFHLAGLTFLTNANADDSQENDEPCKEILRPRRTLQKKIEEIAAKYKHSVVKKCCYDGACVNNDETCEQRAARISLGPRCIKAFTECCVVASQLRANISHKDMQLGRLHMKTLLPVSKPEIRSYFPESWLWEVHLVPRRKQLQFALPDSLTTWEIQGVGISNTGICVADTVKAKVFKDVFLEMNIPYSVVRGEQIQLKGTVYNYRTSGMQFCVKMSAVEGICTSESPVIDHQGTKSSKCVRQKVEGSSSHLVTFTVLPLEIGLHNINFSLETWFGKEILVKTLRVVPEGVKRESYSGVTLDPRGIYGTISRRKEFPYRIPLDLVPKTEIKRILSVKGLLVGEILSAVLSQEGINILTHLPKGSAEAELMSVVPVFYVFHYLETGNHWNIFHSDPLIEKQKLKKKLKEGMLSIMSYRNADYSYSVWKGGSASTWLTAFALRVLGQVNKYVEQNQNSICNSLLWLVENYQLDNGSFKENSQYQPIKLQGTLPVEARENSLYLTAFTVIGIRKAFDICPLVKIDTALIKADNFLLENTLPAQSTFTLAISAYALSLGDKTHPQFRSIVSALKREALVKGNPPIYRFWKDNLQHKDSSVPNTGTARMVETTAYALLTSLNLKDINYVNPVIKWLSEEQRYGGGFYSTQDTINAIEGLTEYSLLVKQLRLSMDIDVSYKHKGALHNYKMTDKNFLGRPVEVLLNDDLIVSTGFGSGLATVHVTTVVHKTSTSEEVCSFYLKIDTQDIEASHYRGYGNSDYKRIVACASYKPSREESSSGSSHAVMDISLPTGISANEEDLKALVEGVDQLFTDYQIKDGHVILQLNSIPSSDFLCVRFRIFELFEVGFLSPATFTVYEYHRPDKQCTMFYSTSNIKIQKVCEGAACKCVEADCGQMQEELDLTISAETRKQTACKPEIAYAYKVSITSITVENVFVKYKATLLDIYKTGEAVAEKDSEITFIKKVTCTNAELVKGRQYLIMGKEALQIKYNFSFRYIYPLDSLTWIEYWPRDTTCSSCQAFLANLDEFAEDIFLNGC
UniProt P02748, residues 22-559: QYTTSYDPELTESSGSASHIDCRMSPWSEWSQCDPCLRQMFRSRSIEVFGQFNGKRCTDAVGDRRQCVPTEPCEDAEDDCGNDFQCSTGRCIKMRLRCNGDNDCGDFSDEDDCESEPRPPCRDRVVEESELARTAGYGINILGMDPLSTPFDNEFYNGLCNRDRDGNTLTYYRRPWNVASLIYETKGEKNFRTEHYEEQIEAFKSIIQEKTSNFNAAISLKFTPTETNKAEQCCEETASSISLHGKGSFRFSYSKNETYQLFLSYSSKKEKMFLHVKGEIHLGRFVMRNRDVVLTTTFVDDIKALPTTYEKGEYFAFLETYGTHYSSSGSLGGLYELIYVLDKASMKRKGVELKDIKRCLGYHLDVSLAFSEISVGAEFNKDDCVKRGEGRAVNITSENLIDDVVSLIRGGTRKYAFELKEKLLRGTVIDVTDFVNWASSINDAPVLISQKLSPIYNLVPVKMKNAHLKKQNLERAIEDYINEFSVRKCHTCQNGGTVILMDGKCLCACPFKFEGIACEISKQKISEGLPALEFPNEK

For the experiment, the target named is C5b-8 assembled on convertase-labeled E. coli from preassembled C5b6, C7 and C8 (UniProt P01031). Kind of experiment: flow cytometry on cells; convertase-labeled E. coli exposed to a concentration range of preassembled C5b6 or of C5 and C6 with 100 nM C7; after washing, 20 nM C8 and 100 nM C9-Cy3 added; 37°C, RPMI + 0.05% HSA; C9-Cy3 on bacteria read by flow cytometry; control at 0 nM C5b6 or C5-C6; only the binder purified. A general note: In flow cytometry, cells or beads pass a laser one at a time.

No constants are given. Whether binding was seen depends on the method and setting. Some binding calls cover weakened binding; strength is not graded here.

In the case of C9-Cy3 (from UniProt P02748 22-559), the binding entry was “binds”.
